Reference: US10689374B1, “Pyrimidine-thiazolidinone derivatives” (UNITED ARAB EMIRATES UNIVERSITY, priority 2019, dated 2020)
For at least one compound, name, drawing or mass did not settle the structure.

Test system: βTC6 cells
Assay: Insulin secretion from βTC6 cells (high range insulin Sandwich ELISA kit)
Format: cell-based
Conditions: pioglitazone at 10^−12, 10^−9, 10^−7, and 10^−5 M
Experimental: Secretion of insulin by βTC6 cells was measured using the high range insulin Sandwich ELISA kit.
Similarly, a variety of thiazolidinedione-2,4-dione-pyrimidine derivatives, at 10^−12, 10^−9, 10^−6 M concentrations, were investigated for their effect on insulin secretion in the absence and presence of 2.8 mM glucose from βTC6 cells. […] These compounds also increase insulin secretion in the presence of glucose and, thereby, prevent hyperglycemia.
The effects of rhodanine-pyrimidine derivatives 130a-g were also investigated at 10^−12, 10^−9, 10^−6 M concentrations, for effect on insulin secretion in absence and presence of 2.8 mM glucose in βTC6 cells.

## CCc1ccc(CCOc2ccc(CC3SC(=O)NC3=O)cc2)nc1 (centres unmarked) [pioglitazone, reference compound]
Absence of glucose
  basal insulin secretion: did not show any significant effect
Presence of 2.88 mM glucose
  glucose stimulated insulin secretion: did not show any significant effect
